Measurements from PubChem BioAssay AID1259415 (National Center for Advancing Translational Sciences (NCATS), 2018).
In all, about 410,000 compounds went through this assay and about 18,000 (4.4%) were called active. The inconclusive results got no clear call from the source; some entries with a clear call stand among them for comparison. Cut-off read from the data, not from the text of the source: active = activity change below about -60%; inconclusive = no clear call, values can overlap the other calls; inactive = above about -39%.

Assay: qHTS Assay for inhibitors of the human cytomegalovirus (HCMV)
Conditions: HFF cells, HCMV-luciferase reporter, 72 h; at 57.5 µM; stronger effect = lower value
Summary of the method: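 Inhibition of viral replication was scored as loss of reporter luminescence in HFFs infected with HCMV-luciferase (MOI 1 PFU/cell) for 72 h; compounds tested at 2 doses, normalized to buffer and Salinomycin controls.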
% is set by controls: 0 for no effect and ±100 for the full control effect.

Structure (SMILES)	activity change, negative = inhibition
COc1c(C)cc(C(=O)C2CCCN(C(=O)CCc3scnc3C)C2)cc1C (stereo not given)	active: -62.1%
CC(C)(C)c1ccc(C(=O)Nc2ccc(NC(=O)c3ccco3)cc2)cc1	active: -83.3%
Cc1ccc(C)c(NC(=O)CCCCCCCCCCC2COCCO2)c1 (stereo not given)	inconclusive: -56.6%
Cc1cccc2cc3c(N)c(C(=O)N4CCc5ccccc54)sc3nc12	inconclusive: -43.6%
O=C(COC(=O)c1ccc([N+](=O)[O-])s1)Nc1ncc(C(F)(F)F)cc1Cl	inactive: 17.6%
CC(C)CC(=O)N1CCN(S(=O)(=O)c2ccc(C3CCCCC3)cc2)CC1	inactive: -27.5%
Cc1cccc(OCc2nnc(SCC(=O)N3c4ccccc4Sc4ccc(Cl)cc43)o2)c1	inconclusive: -51.4%
CC(C)CC1NC(=O)N(CC(=O)NC2CCCc3ccccc32)C1=O (stereo not given)	inactive: 0.034%
COc1ccc2[nH]c(=O)c(CN(CCN3CCCC3)C(=O)Nc3ccccc3Cl)cc2c1	active: -88.5%
CC1C(=O)CC(c2ccccc2)N(C)C1c1ccccc1 (stereo not given)	inconclusive: -44.1%
Cc1ccc(-c2csc3nc4ccc(C(=O)NCCO)cc4c(=O)n23)cc1	active: -89.8%
COc1cc2c(cc1OC)C(COc1ccccc1OC)N(C(=O)c1ccc(S(=O)(=O)N(C)C)cc1)CC2 (stereo not given)	inconclusive: 0%
COC(=O)c1cc(S(=O)(=O)N(Cc2ccccc2)C(C)(C)C)c[nH]1	inconclusive: -42.4%
COc1ccc(OCC(=O)O/N=C(\N)Cc2cccs2)cc1	inactive: -17.6%
CCCC(=O)NC(=S)Nc1cccc2c(O)cccc12	active: -99.3%
O=C1CCN(CCCc2ccccc2)CCN1[C@H](CO)c1ccccc1	inconclusive: -46.5%
C[C@H](CO)N1C[C@H](C)[C@@H](CN(C)Cc2ccc3c(c2)OCO3)Oc2c(NC(=O)Cc3ccccc3)cccc2C1=O	inconclusive: -43.9%
CC(=O)Nc1sc2c(c1C(c1ccc(F)cc1)N1CCOCC1)CCCC2 (stereo not given)	active: -86.2%
CCCCCN=C(N)N/N=C/c1c[nH]c2ccc(OC)cc12	active: -99.7%
Cc1nn2c(-c3cccc(NC(=O)c4ccco4)c3)nnc2c2ccccc12	inconclusive: -46.4%
Cc1cccc(NC(=O)CSc2nc3ccccc3c(=O)n2C)c1	inconclusive: -43.8%
Cc1ccc(N(Cc2cc(=O)[nH]c3ccccc23)C(=O)C(C)C)cc1	inconclusive: 0%
O=C(CCC1CCCN(C(=O)C2(c3ccccc3)CC2)C1)N1CCN(c2ccccn2)CC1 (stereo not given)	inconclusive: -41.2%
COc1ccc(-c2ccc(/C=N/NC(=O)c3cccnc3)o2)c([N+](=O)[O-])c1	inconclusive: -53.8%
COc1ccc(/C=N/Nc2ccccn2)cc1OC	inactive: 113%
C=CCOc1ccccc1C(=O)/C=C1/C(=O)Nc2ccccc21	active: -103%
CCCC(=O)NC(c1ccco1)c1c(O)ccc2ccccc12 (stereo not given)	active: -83.6%
Cc1ccccc1C(=O)Nc1cccc(NC(=O)c2ccc(F)cc2)c1	inconclusive: -52.9%

Structure (SMILES)	activity change, negative = inhibition
CC(CNC(=O)c1ccc(C(C)(C)C)cc1)CN(C)C (stereo not given)	inconclusive: -52.6%
COc1ccc([N+](=O)[O-])cc1/C=N/NC(=O)Cc1ccccc1	inconclusive: -46.1%
CCOC(=O)Cc1csc(NC(=O)CN2CCOCC2)n1	inactive: -1.94%
O=C(Cn1c(=O)n(CC2CCCO2)c(=O)c2ccccc21)Nc1ccc(F)cc1F (stereo not given)	inactive: -1.73%
CN1CCN(C(=O)c2ccccc2NC(=O)c2ccccc2)CC1	inconclusive: -49.8%
CC(=O)Nc1ccc2c(c1)C(N1CC3CCC(CC3)C1)c1ccccc1-2 (stereo not given)	inconclusive: -49%
CN1/C(=C\C(=O)C[n+]2ccc(C(=O)c3ccccc3)cc2)C(C)(C)c2ccccc21	active: -94.7%
CCCC1=C/C(=C/c2ccc(-c3ccccc3OC)o2)C(=O)O1	inactive: -33.2%
Cc1ccc(NC(=O)c2ncn(CCCNCc3ccccc3)n2)cc1C	inconclusive: -47.7%
O=C(O)[C@@H]1C[C@H]1[C@@H](NP(=O)(c1ccccc1)c1ccccc1)c1ccccc1	active: -99.4%
COc1ccc(NC(=O)CN(C)S(=O)(=O)c2ccc3nc(C)sc3c2)cc1Cl	active: -68.6%
O=C(CSc1nnc2ccccn12)NNC(=O)c1cccc([N+](=O)[O-])c1	inactive: -14%
O=c1cc(Nc2cccc(Br)c2)[nH]c(=O)[nH]1	inactive: -24.9%
C[C@H](NC(=O)Nc1cccc(C(F)(F)F)c1)C(=O)O	inactive: -20.7%
Fc1cccc(Cl)c1/C=N/n1c(-c2cccnc2)n[nH]c1=S	inactive: -7.72%
O=C(NCCc1ccc(Cl)cc1)c1ccc(=O)[nH]c1	inconclusive: -41.9%
CCS(=O)(=O)c1nc(S(=O)(=O)c2ccc(Cl)cc2)c(NCCCN2CCCC2=O)s1	inconclusive: -43.4%
Cc1ccc(S(=O)(=O)N(Cc2cccnc2)Cc2cc3ccccc3[nH]c2=O)cc1	active: -62.4%
CCOc1ccc(S(=O)(=O)Nc2ccc3c(c2)CCCN3S(=O)(=O)c2ccc(C)cc2)cc1	active: -64.7%
COc1ccc(/C=N/NC(=O)c2ccn[nH]2)cc1COc1ccc([N+](=O)[O-])c(C)c1	inconclusive: -49.5%
Cc1c(OC(C)C(=O)NCCN2CCOCC2)ccc2c3c(c(=O)oc12)CCCC3 (stereo not given)	inconclusive: -43.7%
COc1cc(C2NC(=S)NC(O)(C(F)(F)F)C2C(=O)c2cccs2)cc(OC)c1O (stereo not given)	inconclusive: -52.3%
CCOC(=O)COc1ccc(C(=O)Nc2cccc(Cl)c2C)cc1	inconclusive: -50.7%
CC(=O)N1c2ccc(S(=O)(=O)N3CCC(C(=O)Nc4ccc(F)cc4)CC3)cc2CC1C (stereo not given)	inconclusive: -49.1%
Cc1cccc(N2CCN(Cc3oc(CO)cc(=O)c3O)CC2)c1C	inconclusive: -50.8%
COC(=O)c1cc(S(=O)(=O)N2CCC(c3cc(OC)ccc3OC)C2)c[nH]1 (stereo not given)	inconclusive: -41.9%
O=C(c1cc(C(=O)N2CCN(c3ccc(F)cc3)CC2)cc([N+](=O)[O-])c1)N1CCN(c2ccc(F)cc2)CC1	active: -66.2%

Gathered by group: those above with a COOH group.
Structure (SMILES)	activity change, negative = inhibition
O=C(O)[C@@H]1C[C@H]1[C@@H](NP(=O)(c1ccccc1)c1ccccc1)c1ccccc1	active: -99.4%
C[C@H](NC(=O)Nc1cccc(C(F)(F)F)c1)C(=O)O	inactive: -20.7%
